Measurements published in the supplement of paper PMC6411743.
± gives the standard deviation of the averaged measurements. Only a part is listed here, and it is no random draw.

Assays:
Experiment in all cases: NP40-soluble protein abundance relative to vehicle (solubility fold change) (ratio); higher = more soluble protein in presence of AMP-PNP
[1] = target: T1, UniProt Q8WX93 and related entries
T1 sequence (whole entry): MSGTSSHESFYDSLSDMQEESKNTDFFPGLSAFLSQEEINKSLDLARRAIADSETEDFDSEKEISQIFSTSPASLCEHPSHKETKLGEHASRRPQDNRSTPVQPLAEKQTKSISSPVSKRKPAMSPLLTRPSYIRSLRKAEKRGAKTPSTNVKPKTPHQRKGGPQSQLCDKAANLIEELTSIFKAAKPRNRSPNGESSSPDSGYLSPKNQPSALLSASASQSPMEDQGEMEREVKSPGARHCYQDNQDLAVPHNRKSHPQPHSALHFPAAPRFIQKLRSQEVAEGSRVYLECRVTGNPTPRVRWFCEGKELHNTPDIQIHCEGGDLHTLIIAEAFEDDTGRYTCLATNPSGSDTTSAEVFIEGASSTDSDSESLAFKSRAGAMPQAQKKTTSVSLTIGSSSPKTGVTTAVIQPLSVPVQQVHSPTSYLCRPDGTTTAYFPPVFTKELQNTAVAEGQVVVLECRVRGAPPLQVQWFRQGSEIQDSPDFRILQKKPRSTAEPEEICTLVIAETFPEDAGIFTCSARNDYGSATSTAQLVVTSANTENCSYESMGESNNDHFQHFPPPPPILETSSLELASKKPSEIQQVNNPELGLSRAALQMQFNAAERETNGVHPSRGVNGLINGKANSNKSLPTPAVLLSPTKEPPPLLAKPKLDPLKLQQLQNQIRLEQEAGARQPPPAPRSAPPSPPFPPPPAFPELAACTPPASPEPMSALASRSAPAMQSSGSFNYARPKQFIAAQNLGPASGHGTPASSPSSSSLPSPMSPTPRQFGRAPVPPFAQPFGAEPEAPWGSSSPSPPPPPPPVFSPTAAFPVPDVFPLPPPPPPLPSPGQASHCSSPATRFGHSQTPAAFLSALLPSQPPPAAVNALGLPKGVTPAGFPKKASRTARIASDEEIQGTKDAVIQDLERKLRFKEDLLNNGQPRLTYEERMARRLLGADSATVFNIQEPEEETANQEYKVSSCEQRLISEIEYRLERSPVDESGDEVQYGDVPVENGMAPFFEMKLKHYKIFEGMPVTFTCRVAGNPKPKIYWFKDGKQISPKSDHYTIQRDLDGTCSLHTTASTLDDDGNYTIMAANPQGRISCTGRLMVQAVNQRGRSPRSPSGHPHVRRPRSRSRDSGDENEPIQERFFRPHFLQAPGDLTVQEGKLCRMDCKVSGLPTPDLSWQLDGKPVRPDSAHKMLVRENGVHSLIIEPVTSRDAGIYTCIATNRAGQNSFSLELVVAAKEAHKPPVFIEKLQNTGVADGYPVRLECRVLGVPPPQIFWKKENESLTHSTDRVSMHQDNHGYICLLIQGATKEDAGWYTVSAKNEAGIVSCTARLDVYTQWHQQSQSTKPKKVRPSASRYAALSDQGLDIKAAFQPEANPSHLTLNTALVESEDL
Method in brief: (§1)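 Crude Jurkat lysate, prepared by Dounce homogenisation, was exposed to eight concentrations from 0.1 to 10 mM for 10 min at room temperature and then 3 min at 37 °C. Solubilisation used 0.8% NP40 with benzonase for 60 min at 4 °C, followed by ultracentrifugation and TMT labelling of the supernatant for LC-MS/MS. After vsn normalisation of intensities, each value is the fold change against the detergent-processed vehicle within each replicate, across three independent experiments.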

[2] = target: T2, UniProt Q8WYQ5 and related entries
T2 sequence (whole entry): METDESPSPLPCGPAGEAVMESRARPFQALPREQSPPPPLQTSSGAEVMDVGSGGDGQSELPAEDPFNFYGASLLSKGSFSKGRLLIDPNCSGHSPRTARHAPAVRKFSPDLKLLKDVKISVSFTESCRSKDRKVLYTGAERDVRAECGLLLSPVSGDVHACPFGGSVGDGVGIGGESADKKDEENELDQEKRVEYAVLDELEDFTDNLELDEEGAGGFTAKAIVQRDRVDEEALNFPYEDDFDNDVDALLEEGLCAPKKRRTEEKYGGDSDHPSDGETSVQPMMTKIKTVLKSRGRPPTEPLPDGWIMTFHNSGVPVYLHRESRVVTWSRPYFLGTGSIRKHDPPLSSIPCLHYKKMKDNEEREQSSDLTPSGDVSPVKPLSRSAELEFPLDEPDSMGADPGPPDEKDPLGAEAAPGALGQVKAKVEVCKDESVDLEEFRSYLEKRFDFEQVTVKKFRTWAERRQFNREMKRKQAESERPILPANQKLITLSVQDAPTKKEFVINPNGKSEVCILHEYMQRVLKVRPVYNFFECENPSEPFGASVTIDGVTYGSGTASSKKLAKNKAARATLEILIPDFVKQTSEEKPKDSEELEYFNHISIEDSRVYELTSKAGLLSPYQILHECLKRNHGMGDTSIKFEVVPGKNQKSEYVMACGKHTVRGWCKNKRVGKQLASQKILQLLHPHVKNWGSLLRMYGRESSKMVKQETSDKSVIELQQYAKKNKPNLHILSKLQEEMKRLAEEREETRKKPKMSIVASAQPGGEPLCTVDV
Method in brief: as §1

[3] = target: T3, UniProt Q92581-2|Q92581-3|Q92581
T3 sequence (whole entry): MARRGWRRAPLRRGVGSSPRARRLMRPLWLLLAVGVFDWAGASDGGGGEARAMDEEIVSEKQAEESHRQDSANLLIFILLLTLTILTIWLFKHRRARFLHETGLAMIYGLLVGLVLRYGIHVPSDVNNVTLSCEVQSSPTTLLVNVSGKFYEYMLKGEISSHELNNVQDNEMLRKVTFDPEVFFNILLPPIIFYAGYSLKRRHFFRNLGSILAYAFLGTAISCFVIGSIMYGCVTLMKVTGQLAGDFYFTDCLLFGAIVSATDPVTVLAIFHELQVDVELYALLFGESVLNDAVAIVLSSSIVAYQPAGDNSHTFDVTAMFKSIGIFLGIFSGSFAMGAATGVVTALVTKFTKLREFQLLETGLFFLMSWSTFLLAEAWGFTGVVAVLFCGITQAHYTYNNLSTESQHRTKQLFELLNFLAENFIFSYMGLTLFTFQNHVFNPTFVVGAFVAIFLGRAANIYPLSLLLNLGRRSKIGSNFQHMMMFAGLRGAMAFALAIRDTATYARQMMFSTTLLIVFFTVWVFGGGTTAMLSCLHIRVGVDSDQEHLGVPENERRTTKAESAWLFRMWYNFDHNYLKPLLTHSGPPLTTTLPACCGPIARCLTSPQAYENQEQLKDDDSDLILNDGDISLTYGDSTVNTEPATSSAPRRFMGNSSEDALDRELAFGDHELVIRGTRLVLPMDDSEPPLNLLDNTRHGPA
Method in brief: as §1

[4] = target: T4, UniProt Q92851 and related entries
T4 sequence (whole entry): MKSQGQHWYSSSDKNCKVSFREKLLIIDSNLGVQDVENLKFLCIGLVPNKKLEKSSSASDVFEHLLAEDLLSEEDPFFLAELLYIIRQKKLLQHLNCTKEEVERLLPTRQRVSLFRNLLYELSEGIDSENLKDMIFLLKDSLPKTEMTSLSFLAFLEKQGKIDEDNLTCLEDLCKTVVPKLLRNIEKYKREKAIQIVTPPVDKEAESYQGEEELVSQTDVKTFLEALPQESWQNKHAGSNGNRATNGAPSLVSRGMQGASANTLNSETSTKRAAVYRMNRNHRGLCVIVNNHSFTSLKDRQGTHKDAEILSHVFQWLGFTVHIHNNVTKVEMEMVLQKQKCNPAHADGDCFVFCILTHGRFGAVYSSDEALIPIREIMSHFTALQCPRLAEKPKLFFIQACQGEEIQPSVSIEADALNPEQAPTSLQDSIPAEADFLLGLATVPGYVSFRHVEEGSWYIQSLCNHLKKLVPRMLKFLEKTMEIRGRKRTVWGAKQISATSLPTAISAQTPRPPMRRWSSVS
Method in brief: as §1

[5] = target: T5, UniProt Q92896 and related entries
T5 sequence (whole entry): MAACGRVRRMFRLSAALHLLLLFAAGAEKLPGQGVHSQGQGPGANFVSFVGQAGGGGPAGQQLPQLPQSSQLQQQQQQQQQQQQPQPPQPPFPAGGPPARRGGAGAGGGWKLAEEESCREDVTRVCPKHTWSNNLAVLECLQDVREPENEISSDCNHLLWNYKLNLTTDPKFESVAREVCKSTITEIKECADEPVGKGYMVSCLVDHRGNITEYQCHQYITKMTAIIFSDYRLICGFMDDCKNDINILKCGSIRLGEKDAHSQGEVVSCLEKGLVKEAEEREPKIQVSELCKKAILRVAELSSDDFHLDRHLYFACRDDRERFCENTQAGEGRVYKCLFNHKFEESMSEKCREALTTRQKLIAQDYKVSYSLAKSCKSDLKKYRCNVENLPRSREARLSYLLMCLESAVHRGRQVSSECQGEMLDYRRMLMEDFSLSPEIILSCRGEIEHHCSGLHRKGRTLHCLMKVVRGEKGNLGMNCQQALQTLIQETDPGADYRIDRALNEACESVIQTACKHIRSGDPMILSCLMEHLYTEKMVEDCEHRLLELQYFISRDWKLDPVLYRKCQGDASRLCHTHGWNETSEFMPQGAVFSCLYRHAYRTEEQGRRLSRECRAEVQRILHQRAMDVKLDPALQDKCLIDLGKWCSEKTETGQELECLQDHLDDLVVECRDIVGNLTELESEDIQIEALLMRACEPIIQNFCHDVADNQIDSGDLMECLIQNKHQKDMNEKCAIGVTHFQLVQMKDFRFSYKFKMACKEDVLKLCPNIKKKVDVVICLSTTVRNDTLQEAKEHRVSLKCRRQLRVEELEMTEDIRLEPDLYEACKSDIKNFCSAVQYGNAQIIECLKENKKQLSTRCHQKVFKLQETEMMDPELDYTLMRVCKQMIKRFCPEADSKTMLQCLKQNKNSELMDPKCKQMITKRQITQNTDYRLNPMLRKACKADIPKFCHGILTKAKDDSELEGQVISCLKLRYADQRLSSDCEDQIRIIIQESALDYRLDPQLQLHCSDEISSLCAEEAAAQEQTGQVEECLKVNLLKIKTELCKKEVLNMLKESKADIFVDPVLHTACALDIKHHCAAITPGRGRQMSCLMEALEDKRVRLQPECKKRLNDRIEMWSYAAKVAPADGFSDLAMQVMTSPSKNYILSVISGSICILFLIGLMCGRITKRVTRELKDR
Method in brief: as §1

WASF1 = target: T6, WASF1 (UniProt Q92558)
T6 sequence (whole entry): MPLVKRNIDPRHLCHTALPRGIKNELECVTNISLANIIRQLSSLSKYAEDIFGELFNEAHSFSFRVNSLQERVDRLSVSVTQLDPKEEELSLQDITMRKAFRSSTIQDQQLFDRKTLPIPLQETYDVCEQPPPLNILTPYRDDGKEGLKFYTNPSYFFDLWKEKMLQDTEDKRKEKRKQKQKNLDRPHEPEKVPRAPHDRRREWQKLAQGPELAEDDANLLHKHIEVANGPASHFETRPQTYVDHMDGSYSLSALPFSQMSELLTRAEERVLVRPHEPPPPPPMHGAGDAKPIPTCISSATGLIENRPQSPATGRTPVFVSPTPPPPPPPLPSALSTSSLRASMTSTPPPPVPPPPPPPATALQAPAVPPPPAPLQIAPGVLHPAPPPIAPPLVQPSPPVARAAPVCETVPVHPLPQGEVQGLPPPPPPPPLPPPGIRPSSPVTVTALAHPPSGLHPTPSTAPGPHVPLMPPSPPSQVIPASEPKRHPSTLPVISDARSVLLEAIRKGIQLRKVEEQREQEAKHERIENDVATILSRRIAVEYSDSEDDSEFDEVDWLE
Method in brief: as §1

Structure (SMILES): Nc1ncnc2c1ncn2[C@@H]1O[C@H](COP(=O)(O)OP(=O)(O)NP(=O)(O)O)[C@@H](O)[C@H]1O [adenylyl imidodiphosphate]
- NP40-soluble protein abundance ([1]; concentration: 2mM): 1.1 ± 0.099
- NP40-soluble protein abundance ([1]; concentration: 4mM): 1.04 ± 0.032
- NP40-soluble protein abundance ([1]; concentration: 6mM): 1.02 ± 0.03
- NP40-soluble protein abundance ([1]; concentration: 8mM): 1 ± 0.039
- NP40-soluble protein abundance ([1]; concentration: 10mM): 1.03 ± 0.043
- NP40-soluble protein abundance ([2]; concentration: 1mM): 1.08 ± 0.016
- NP40-soluble protein abundance ([2]; concentration: 2mM): 1.01 ± 0.016
- NP40-soluble protein abundance ([2]; concentration: 4mM): 1.04 ± 0.021
- NP40-soluble protein abundance ([2]; concentration: 6mM): 1.05 ± 0.071
- NP40-soluble protein abundance ([2]; concentration: 8mM): 1.03 ± 0.051
- NP40-soluble protein abundance ([2]; concentration: 10mM): 1.05 ± 0.055
- NP40-soluble protein abundance ([3]; concentration: 1mM): 0.999 ± 0.012
- NP40-soluble protein abundance ([3]; concentration: 2mM): 0.9876 ± 0.0034
- NP40-soluble protein abundance ([3]; concentration: 4mM): 0.957 ± 0.028
- NP40-soluble protein abundance ([3]; concentration: 6mM): 0.9812 ± 0.0025
- NP40-soluble protein abundance ([3]; concentration: 8mM): 0.979 ± 0.025
- NP40-soluble protein abundance ([3]; concentration: 10mM): 0.96 ± 0.026
- NP40-soluble protein abundance ([4]; concentration: 1mM): 1.01 ± 0.049
- NP40-soluble protein abundance ([4]; concentration: 2mM): 0.999 ± 0.029
- NP40-soluble protein abundance ([4]; concentration: 4mM): 1.03 ± 0.017
- NP40-soluble protein abundance ([4]; concentration: 6mM): 0.9904 ± 0.0072
- NP40-soluble protein abundance ([4]; concentration: 8mM): 0.999 ± 0.024
- NP40-soluble protein abundance ([4]; concentration: 10mM): 0.982 ± 0.026
- NP40-soluble protein abundance ([5]; concentration: 1mM): 1.01 ± 0.021
- NP40-soluble protein abundance ([5]; concentration: 2mM): 1.06 ± 0.098
- NP40-soluble protein abundance ([5]; concentration: 4mM): 1.01 ± 0.039
- NP40-soluble protein abundance ([5]; concentration: 6mM): 1.02 ± 0.021
- NP40-soluble protein abundance ([5]; concentration: 8mM): 0.993 ± 0.017
- NP40-soluble protein abundance ([5]; concentration: 10mM): 1.03 ± 0.017
- NP40-soluble protein abundance (WASF1; concentration: 1mM): 1.05 ± 0.017
- NP40-soluble protein abundance (WASF1; concentration: 2mM): 1.16 ± 0.091
- NP40-soluble protein abundance (WASF1; concentration: 4mM): 1.05 ± 0.02
- NP40-soluble protein abundance (WASF1; concentration: 6mM): 1.04 ± 0.061
- NP40-soluble protein abundance (WASF1; concentration: 8mM): 0.976 ± 0.039
- NP40-soluble protein abundance (WASF1; concentration: 10mM): 1.05 ± 0.051
